Experiment [1] concerns the target T1, His-SMYD5 (human), from pCMV-6×His-SMYD5(human)-Neo (human) (UniProt Q6GMV2).
T1 sequence: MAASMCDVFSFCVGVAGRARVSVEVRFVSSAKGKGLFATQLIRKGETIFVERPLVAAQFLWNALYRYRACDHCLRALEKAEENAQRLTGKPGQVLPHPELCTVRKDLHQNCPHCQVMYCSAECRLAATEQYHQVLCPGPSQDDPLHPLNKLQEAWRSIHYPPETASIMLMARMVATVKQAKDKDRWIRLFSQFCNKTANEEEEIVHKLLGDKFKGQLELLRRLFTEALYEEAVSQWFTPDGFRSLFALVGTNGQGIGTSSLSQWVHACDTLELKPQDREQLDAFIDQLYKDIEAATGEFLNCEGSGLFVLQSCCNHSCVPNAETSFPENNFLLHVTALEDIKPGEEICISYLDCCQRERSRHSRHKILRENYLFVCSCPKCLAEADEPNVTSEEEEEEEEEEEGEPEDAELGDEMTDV
The experiment is described as follows: co-IP; HEK293T cotransfected with the tagged plasmids, lysed in IP-RIPA buffer; lysates (500-1000 μg) immunoprecipitated with anti-His antibody overnight at 4 °C (IgG as control), Protein A/G PLUS-Agarose, washed three times with PBS, immunoblot.

Amino acid sequences for entries named in this document (tags omitted).
UniProt Q12778: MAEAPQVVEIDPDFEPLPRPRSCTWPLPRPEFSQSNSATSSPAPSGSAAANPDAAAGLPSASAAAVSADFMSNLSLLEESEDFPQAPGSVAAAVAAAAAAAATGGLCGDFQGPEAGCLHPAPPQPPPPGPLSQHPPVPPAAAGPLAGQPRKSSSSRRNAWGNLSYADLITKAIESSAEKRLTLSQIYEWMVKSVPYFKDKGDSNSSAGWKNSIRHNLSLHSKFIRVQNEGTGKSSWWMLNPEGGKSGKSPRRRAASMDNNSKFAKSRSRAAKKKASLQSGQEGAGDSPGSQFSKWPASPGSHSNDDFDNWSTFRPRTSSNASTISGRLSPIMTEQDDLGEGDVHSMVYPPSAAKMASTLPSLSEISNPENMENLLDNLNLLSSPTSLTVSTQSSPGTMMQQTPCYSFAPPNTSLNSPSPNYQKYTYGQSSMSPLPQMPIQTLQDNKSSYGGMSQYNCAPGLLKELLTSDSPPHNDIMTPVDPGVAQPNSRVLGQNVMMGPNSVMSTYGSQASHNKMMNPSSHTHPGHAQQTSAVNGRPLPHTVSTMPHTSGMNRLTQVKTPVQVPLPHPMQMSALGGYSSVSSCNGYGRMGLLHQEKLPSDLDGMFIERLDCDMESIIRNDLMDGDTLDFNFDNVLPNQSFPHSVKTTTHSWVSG

Experiment [2] has as its target T1, His-SMYD5 (human), from pCMV-6×His-SMYD5(human)-Neo (human). The experiment is described as above. This is another data set of the same source.

Two molecules from paper PMC11959843 can be followed below.

Read-outs that look alike come from different tables or passages of the source. These are yes or no findings as the source states them, for the method shown. Binding seen in cells or lysates may run through a third protein. Some binding calls cover weakened binding; strength is not graded here. Sequences can lack the tags named with a protein.

Consider “HA-FoxO1 (human), from pCDNA3.1-FOXO1(human)-3×HA-SV40-Neo (from UniProt Q12778 1-655)”, for which, in experiment [1], the binding result is recorded as “binds”.

B1: Flag-HK2 (human), from pCMV-3×FLAG-HK2(human)-Neo (enzyme, UniProt P52789 1-917)
chain: MIASHLLAYFFTELNHDQVQKVDQYLYHMRLSDETLLEISKRFRKEMEKGLGATTHPTAAVKMLPTFVRSTPDGTEHGEFLALDLGGTNFRVLWVKVTDNGLQKVEMENQIYAIPEDIMRGSGTQLFDHIAECLANFMDKLQIKDKKLPLGFTFSFPCHQTKLDESFLVSWTKGFKSSGVEGRDVVALIRKAIQRRGDFDIDIVAVVNDTVGTMMTCGYDDHNCEIGLIVGTGSNACYMEEMRHIDMVEGDEGRMCINMEWGAFGDDGSLNDIRTEFDQEIDMGSLNPGKQLFEKMISGMYMGELVRLILVKMAKEELLFGGKLSPELLNTGRFETKDISDIEGEKDGIRKAREVLMRLGLDPTQEDCVATHRICQIVSTRSASLCAATLAAVLQRIKENKGEERLRSTIGVDGSVYKKHPHFAKRLHKTVRRLVPGCDVRFLRSEDGSGKGAAMVTAVAYRLADQHRARQKTLEHLQLSHDQLLEVKRRMKVEMERGLSKETHASAPVKMLPTYVCATPDGTEKGDFLALDLGGTNFRVLLVRVRNGKWGGVEMHNKIYAIPQEVMHGTGDELFDHIVQCIADFLEYMGMKGVSLPLGFTFSFPCQQNSLDESILLKWTKGFKASGCEGEDVVTLLKEAIHRREEFDLDVVAVVNDTVGTMMTCGFEDPHCEVGLIVGTGSNACYMEEMRNVELVEGEEGRMCVNMEWGAFGDNGCLDDFRTEFDVAVDELSLNPGKQRFEKMISGMYLGEIVRNILIDFTKRGLLFRGRISERLKTRGIFETKFLSQIESDCLALLQVRAILQHLGLESTCDDSIIVKEVCTVVARRAAQLCGAGMAAVVDRIRENRGLDALKVTVGVDGTLYKLHPHFAKVMHETVKDLAPKCDVSFLQSEDGSGKGAALITAVACRIREAGQR
As for B1, in experiment [2], the binding result is on record as “binds”.
